Results are given in words; binding and its absence hold for the method and conditions named. Some binding calls cover weakened binding; strength is not graded here. For some assays here: Tags and fused reporters may be left off the sequences shown.

These results are taken from article doi:10.1101/2024.01.16.575974.

The target of experiment [1] is T1, Escherichia coli FtsEX complex (wild type) in peptidiscs (Escherichia coli (str. K-12, MG1655)) (UniProt P0A9R7+P0AC30).
T1 sequence 1: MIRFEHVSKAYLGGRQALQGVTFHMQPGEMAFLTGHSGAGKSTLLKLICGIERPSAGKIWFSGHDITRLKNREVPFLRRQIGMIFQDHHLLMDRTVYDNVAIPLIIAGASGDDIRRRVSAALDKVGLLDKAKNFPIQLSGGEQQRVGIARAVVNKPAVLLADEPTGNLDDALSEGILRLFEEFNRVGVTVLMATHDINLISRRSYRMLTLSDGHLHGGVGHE
T1 sequence 2: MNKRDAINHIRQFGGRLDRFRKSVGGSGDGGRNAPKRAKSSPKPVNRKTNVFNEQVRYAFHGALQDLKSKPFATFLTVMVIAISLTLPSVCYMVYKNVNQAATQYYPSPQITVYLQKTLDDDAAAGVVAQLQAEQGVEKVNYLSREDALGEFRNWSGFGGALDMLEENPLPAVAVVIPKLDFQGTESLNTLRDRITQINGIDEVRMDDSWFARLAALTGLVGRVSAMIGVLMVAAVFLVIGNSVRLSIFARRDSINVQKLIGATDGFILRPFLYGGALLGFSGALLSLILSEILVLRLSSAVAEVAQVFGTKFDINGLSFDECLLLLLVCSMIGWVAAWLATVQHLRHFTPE
Briefly: affinity co-purification.

For experiment [2], the target named is T1, Escherichia coli FtsEX complex (wild type) in peptidiscs (Escherichia coli (str. K-12, MG1655)). Briefly: pull-down.
In experiment [3] the target is T2, Escherichia coli FtsE^E163QX complex in peptidiscs (Escherichia coli (str. K-12, MG1655)) (UniProt P0A9R7+P0AC30).
T2 sequence 1: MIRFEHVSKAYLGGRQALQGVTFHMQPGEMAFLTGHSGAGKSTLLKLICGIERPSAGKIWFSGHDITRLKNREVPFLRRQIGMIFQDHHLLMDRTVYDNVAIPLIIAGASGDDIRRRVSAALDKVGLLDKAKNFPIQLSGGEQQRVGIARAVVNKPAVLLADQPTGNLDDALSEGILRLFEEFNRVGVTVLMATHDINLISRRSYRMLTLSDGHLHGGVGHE
T2 sequence 2: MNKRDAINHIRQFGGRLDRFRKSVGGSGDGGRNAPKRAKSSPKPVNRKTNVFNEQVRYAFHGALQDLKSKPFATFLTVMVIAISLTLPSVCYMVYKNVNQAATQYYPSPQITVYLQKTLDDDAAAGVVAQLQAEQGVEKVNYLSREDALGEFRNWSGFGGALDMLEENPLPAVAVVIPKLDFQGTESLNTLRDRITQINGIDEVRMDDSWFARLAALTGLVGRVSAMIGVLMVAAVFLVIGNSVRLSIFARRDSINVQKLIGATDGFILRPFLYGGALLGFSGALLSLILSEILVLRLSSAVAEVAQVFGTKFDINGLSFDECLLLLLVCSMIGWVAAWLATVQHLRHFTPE
Briefly: pull-down.

Experiment [4] deals with T2, Escherichia coli FtsE^E163QX complex in peptidiscs (Escherichia coli (str. K-12, MG1655)). As to the kind of experiment: cryo-EM structure.
Experiment [5] concerns the target T3, Escherichia coli FtsE E163Q mutant, His-tagged (Escherichia coli (str. K-12, MG1655)) (UniProt P0A9R7).
T3 sequence: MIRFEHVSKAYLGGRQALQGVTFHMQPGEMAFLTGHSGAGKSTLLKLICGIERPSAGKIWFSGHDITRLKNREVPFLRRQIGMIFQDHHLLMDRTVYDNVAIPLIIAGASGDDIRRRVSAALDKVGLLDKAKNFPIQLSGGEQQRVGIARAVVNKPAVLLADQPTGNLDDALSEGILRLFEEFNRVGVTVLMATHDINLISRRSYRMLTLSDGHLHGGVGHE
Briefly: affinity co-purification.

Experiment [6] deals with T4, Escherichia coli FtsE, His-tagged, full length (Escherichia coli (str. K-12, MG1655)) (UniProt P0A9R7).
T4 sequence: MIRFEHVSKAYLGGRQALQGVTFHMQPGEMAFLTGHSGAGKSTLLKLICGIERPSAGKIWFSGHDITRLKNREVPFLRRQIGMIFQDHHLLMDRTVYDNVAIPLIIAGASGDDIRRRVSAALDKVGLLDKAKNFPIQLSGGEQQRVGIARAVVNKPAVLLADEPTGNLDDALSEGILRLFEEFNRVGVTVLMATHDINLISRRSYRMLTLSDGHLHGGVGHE
As to the kind of experiment: affinity co-purification.

In experiment [7] the target is T4, Escherichia coli FtsE, His-tagged, full length (Escherichia coli (str. K-12, MG1655)). Briefly: SEC. Background: In gel filtration, larger molecules generally elute earlier.
The target is the same in experiment [8]. As to the kind of experiment: negative-staining electron microscopy.
The target of experiment [9] is T3, Escherichia coli FtsE E163Q mutant, His-tagged (Escherichia coli (str. K-12, MG1655)). As to the kind of experiment: cryo-EM structure.
Experiment [10] has as its target T4, Escherichia coli FtsE, His-tagged, full length (Escherichia coli (str. K-12, MG1655)). As to the kind of experiment: cryo-EM structure.
For experiment [11], the target named is T5, Escherichia coli FtsE^E163QX/EnvC complex in peptidiscs (Escherichia coli (str. K-12, MG1655) | Escherichia coli) (UniProt P0A9R7+P0AC30+P37690).
T5 sequence 1: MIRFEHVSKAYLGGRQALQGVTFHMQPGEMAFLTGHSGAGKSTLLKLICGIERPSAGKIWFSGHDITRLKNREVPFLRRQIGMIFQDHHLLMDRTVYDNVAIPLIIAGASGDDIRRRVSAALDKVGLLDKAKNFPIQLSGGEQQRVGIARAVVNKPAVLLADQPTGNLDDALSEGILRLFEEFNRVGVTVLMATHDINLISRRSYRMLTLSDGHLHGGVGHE
T5 sequence 2: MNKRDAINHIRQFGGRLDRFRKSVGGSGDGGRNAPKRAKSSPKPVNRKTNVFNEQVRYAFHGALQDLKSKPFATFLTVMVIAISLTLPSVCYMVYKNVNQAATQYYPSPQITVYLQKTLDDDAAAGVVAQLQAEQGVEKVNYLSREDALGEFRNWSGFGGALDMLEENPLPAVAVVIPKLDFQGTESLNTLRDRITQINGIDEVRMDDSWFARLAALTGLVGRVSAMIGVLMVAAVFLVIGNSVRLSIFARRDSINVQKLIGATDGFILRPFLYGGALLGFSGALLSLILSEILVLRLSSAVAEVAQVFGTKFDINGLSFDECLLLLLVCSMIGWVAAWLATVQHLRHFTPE
T5 sequence 3: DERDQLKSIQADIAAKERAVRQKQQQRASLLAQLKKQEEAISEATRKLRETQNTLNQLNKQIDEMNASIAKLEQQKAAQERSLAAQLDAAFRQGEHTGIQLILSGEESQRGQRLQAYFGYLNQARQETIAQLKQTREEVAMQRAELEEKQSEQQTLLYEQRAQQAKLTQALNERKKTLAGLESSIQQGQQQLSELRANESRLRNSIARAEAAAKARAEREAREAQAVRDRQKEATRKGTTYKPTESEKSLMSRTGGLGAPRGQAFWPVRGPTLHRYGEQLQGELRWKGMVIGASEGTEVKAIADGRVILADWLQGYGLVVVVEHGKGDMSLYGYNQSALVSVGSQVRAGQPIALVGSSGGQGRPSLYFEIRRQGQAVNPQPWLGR
As to the kind of experiment: negative-staining electron microscopy.

The target in experiment [12] is T5, Escherichia coli FtsE^E163QX/EnvC complex in peptidiscs (Escherichia coli (str. K-12, MG1655) | Escherichia coli). Briefly: pull-down.
Experiment [13] concerns the target T6, Pseudomonas aeruginosa FtsE (Pseudomonas aeruginosa ATCC 47085D).
T6 sequence: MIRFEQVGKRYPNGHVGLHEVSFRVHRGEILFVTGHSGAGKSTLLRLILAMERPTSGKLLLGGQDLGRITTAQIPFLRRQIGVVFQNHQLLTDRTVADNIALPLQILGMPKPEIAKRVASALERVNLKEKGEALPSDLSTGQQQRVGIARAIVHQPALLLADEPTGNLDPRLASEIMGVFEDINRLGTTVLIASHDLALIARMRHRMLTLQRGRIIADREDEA
Briefly: SEC.

In experiment [14] the target is T7, Escherichia coli FtsE, His-tagged, full length (Escherichia coli (str. K-12, MG1655)), P0A9R7.
T7 chain: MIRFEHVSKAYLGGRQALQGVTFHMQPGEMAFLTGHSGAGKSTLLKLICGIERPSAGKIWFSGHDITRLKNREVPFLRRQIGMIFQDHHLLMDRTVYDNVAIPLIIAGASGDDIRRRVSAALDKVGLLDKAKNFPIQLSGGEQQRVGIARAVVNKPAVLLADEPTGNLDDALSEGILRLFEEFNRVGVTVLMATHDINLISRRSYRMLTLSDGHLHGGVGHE
Briefly: cryo-EM structure. The conditions noted are these: remark: other sources report otherwise.

B1: Escherichia coli EnvC (EcoEnvCΔ34) (protein, UniProt P37690 35-419)
chain: DERDQLKSIQADIAAKERAVRQKQQQRASLLAQLKKQEEAISEATRKLRETQNTLNQLNKQIDEMNASIAKLEQQKAAQERSLAAQLDAAFRQGEHTGIQLILSGEESQRGQRLQAYFGYLNQARQETIAQLKQTREEVAMQRAELEEKQSEQQTLLYEQRAQQAKLTQALNERKKTLAGLESSIQQGQQQLSELRANESRLRNSIARAEAAAKARAEREAREAQAVRDRQKEATRKGTTYKPTESEKSLMSRTGGLGAPRGQAFWPVRGPTLHRYGEQLQGELRWKGMVIGASEGTEVKAIADGRVILADWLQGYGLVVVVEHGKGDMSLYGYNQSALVSVGSQVRAGQPIALVGSSGGQGRPSLYFEIRRQGQAVNPQPWLGR
In the case of B1, the binding entry in experiment [1], in [2], in [3] and in experiment [4] was “binds” throughout.

B2: Escherichia coli FtsX, full length (protein, UniProt P0AC30 1-352)
chain: MNKRDAINHIRQFGGRLDRFRKSVGGSGDGGRNAPKRAKSSPKPVNRKTNVFNEQVRYAFHGALQDLKSKPFATFLTVMVIAISLTLPSVCYMVYKNVNQAATQYYPSPQITVYLQKTLDDDAAAGVVAQLQAEQGVEKVNYLSREDALGEFRNWSGFGGALDMLEENPLPAVAVVIPKLDFQGTESLNTLRDRITQINGIDEVRMDDSWFARLAALTGLVGRVSAMIGVLMVAAVFLVIGNSVRLSIFARRDSINVQKLIGATDGFILRPFLYGGALLGFSGALLSLILSEILVLRLSSAVAEVAQVFGTKFDINGLSFDECLLLLLVCSMIGWVAAWLATVQHLRHFTPE
For B2, the binding result in experiment [5], in experiment [6], in experiment [7], in experiment [8], in experiment [9] and in [10] was “binds” each time.

B3: Escherichia coli AmiB (EcoAmiBΔ22) (enzyme, UniProt P26365 23-445)
chain: ATLSDIQVSNGNQQARITLSFIGDPDYAFSHQSKRTVALDIKQTGVIQGLPLLFSGNNLVKAIRSGTPKDAQTLRLVVDLTENGKTEAVKRQNGSNYTVVFTINADVPPPPPPPPVVAKRVETPAVVAPRVSEPARNPFKTESNRTTGVISSNTVTRPAARATANTGDKIIIAIDAGHGGQDPGAIGPGGTREKNVTIAIARKLRTLLNDDPMFKGVLTRDGDYFISVMGRSDVARKQNANFLVSIHADAAPNRSATGASVWVLSNRRANSEMASWLEQHEKQSELLGGAGDVLANSQSDPYLSQAVLDLQFGHSQRVGYDVATSMISQLQRIGEIHKRRPEHASLGVLRSPDIPSVLVETGFISNNSEERLLASDDYQQQLAEAIYKGLRNYFLAHPMQSAPQGATAQTASTVTTPDRTLPN
Regarding B3, the binding entry in experiment [11] and in [12] was “binds” in each case.

B4: Pseudomonas aeruginosa FtsX (protein, UniProt A0A072ZG76 1-335)
chain: MSANDLPRGPEEGAPERKTREKPSQEQTDWSGSFSAYLESHRASLVDSLRRLFGHPFGSFFTCLVMGITLSLPMGLSLLLNNVERLGGSWQRAAQISLFLDLKTSENQGQDLREQIERLPDVIEAQLISREQALSELQEQSGLGEALKELPENPLPPVISVTPKQIDRAGLEALRQQLAELPHVQQAQLDLVWVERLSAILKLGERFVFGLTILLVLTLLLVVGNTIRLHIENRRNEIEVIKLVGGTDGYVRRPFLYMGALYGLGAGILSWALLAYSLNWLNGSVVNLSGLYGSDFGLQGVPLDDGLSLTVGAVLLGWVGAWLAVARHLRELAPR
In the case of B4, the binding entry in experiment [13] is listed as “binds”.

B5: Escherichia coli FtsE, His-tagged, full length, P0A9R7 1-222 (protein)
chain: MIRFEHVSKAYLGGRQALQGVTFHMQPGEMAFLTGHSGAGKSTLLKLICGIERPSAGKIWFSGHDITRLKNREVPFLRRQIGMIFQDHHLLMDRTVYDNVAIPLIIAGASGDDIRRRVSAALDKVGLLDKAKNFPIQLSGGEQQRVGIARAVVNKPAVLLADEPTGNLDDALSEGILRLFEEFNRVGVTVLMATHDINLISRRSYRMLTLSDGHLHGGVGHE
Regarding B5, in [14], the binding result is “binds”.
